The values that follow come from patent US20020034421A1, “Remediation of contaminates including low bioavailability hydrocarbons” (priority 2000, published 2002).

The series can be described thus: Fate of 14C-Benzo(a)pyrene during Fenton's reagent treatment in Quakertown silt loam. The conditions noted are these: [H2O2:FeSO4] = [2.0 g:0.2 g].

“And” between values parts separate entries of the source, which are not always exact repeats. Identical values can stand only once.

Regarding `c1ccc2c(c1)cc1ccc3cccc4ccc2c1c34` [Benzo(a)pyrene, benzo(a)pyrene], the “% recovered, Nonextractable (calculated)” value was 33.6% and 30.3%. For the same compound, the “% recovered, Mineralization to CO2” value (14C-labeled) amounted to 18.3%. Further, the “% recovered, parent compound” value (Determined by GC/FID) is given as 3.3%. Further, the “% recovered, Intermediates Water soluble” value (aqueous phase) is reported as 16.8%. The “% recovered, Intermediates CH2Cl2 extractable” value (soil extract) is 31.3%.
